Changes are numbered by the printed parent chain. Values belong to the binder of their own block, whether it stands above or below them.
Biological target: T1, human IL-6 (human, UniProt P05231 30-212)
T1 construct: recombinant, bought (Peprotech 200-06; R&D Systems 206-IL/CF); biotinylated in the ELISAs; also called hIL-6; rhIL-6
Assay: ELISA, captured Z-ABD, biotin-hIL-6 titrated

Sequences of proteins named here, by UniProt entry; tags and fusion partners are left off. Residues count along the entry.
UniProt P05231, 30-212 limits assumed: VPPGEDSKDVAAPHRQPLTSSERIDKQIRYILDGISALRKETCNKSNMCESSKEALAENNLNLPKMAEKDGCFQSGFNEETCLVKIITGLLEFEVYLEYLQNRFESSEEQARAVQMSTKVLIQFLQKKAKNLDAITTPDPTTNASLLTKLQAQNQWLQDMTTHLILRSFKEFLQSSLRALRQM

B1: Z11433 (designed binder)
chain: AQHDEALEVDAKYAKEERKAWYEIHLLPNLTVDQMAAFISKLFDDPSQSSELLSEAKKLNDSQAPKVDYVLAEAKVLANRELDKYGVSDYYKNLINNAKTVEGVKALIDEILAALPYVPG
notes: domain: GA3; periplasmic ABD fusion
EC50: 0.21 nM

B5: Z11814 (designed binder)
chain: B1 chain with R18A, Y22R, L26I, D33Q
notes: as for B1
EC50: 0.25 nM

B6: Z11835 (designed binder)
chain: B1 chain with K19Q, D33S, M35I
notes: as for B1
EC50: 0.29 nM

B7: Z11802 (designed binder)
chain: B1 chain with Y22F, L26K, D33E
notes: as for B1
EC50: 0.26 nM

B10: Z11805 (designed binder)
chain: B1 chain with R18A, K19R, Y22F, L26A, D33Q, M35V
notes: as for B1
EC50: 0.34 nM

B11: Z11781 (designed binder)
chain: B1 chain with K19E, D33R
notes: as for B1
EC50: 0.29 nM

B12: Z11723 (designed binder)
chain: B1 chain with K19D, D33Q
notes: as for B1
EC50: 0.25 nM

B14: Z11803 (designed binder)
chain: B1 chain with R18H, K19H, Y22T, D33S, S40Q
notes: as for B1
EC50: 0.28 nM

B16: Z11819 (designed binder)
chain: B1 chain with K19T, D33T
notes: as for B1
EC50: 0.25 nM

B19: Z11833 (designed binder)
chain: B1 chain with K19A, L26I, D33Q, S40Q
notes: as for B1
EC50: 0.29 nM

B20: Z11836 (designed binder)
chain: B1 chain with R18A, K19A, Y22R, D33Q
notes: as for B1
EC50: 0.36 nM

B22: Z11818 (designed binder)
chain: B1 chain with K19A, Y22F, L26T, D33Q
notes: as for B1
EC50: 0.24 nM

B25: Z11815 (designed binder)
chain: B1 chain with R18A, K19T, Y22H, L26T, D33H
notes: as for B1
EC50: 0.28 nM

B26: Z11789 (designed binder)
chain: B1 chain with R18A, K19E, Y22R, D33H
notes: as for B1
EC50: 0.24 nM

B27: Z11817 (designed binder)
chain: B1 chain with K19S, D33T
notes: as for B1
EC50: 0.25 nM

B28: Z11644 (designed binder)
chain: B1 chain with K19Q, Y22F, L26A
notes: as for B1
EC50: 0.24 nM

B29: Z11711 (designed binder)
chain: B1 chain with R18A, K19E, Y22R, D33N
notes: as for B1
EC50: 0.35 nM

B30: Z11788 (designed binder)
chain: B1 chain with K19R, V32I, D33Q
notes: as for B1
EC50: 0.25 nM

B32: Z11552 (designed binder)
chain: B1 chain with K19A
notes: as for B1
EC50: 1.2 nM

B33: Z11824 (designed binder)
chain: B1 chain with R18H, K19R, Y22F, D33E
notes: as for B1
EC50: 0.23 nM

B39: Z11791 (designed binder)
chain: B1 chain with K19D, Y22H, D33S
notes: as for B1
EC50: 0.34 nM

B40: Z11674 (designed binder)
chain: B1 chain with R18A, K19R, Y22R, D33Q
notes: as for B1
EC50: 0.26 nM

B43: Z11784 (designed binder)
chain: B1 chain with K19E, Y22W, L26K, D33N
notes: as for B1
EC50: 0.27 nM

Continued by falling EC50, values first:

EC50: 0.23 nM
B4: Z11642 (designed binder)
chain: B1 chain with K19Q, L26T, V32A, D33E
notes: as for B1

EC50: 0.22 nM
B24: Z11861 (designed binder)
chain: B1 chain with R18A, K19Q, Y22L, M35I
notes: as for B1

EC50: 0.22 nM
B42: Z11794 (designed binder)
chain: B1 chain with K19R, L26T, D33Q
notes: as for B1

EC50: 0.21 nM
B45: Z11823 (designed binder)
chain: B1 chain with Y22F, L26A, D33S
notes: as for B1

EC50: 0.2 nM
B13: Z11698 (designed binder)
chain: B1 chain with R18A, Y22R, D33T
notes: as for B1

EC50: 0.19 nM
B35: Z11300 (designed binder)
chain: B1 chain with K19D, D33E, M35I
notes: as for B1

EC50: 0.18 nM
B18: Z11860 (designed binder)
chain: B1 chain with K19E, Y22H, L26I, V32I, D33H
notes: as for B1

EC50: 0.18 nM
B34: Z11472 (designed binder)
chain: B1 chain with R18A, K19R, Y22H, L26I, D33S, M35I
notes: as for B1

EC50: 0.18 nM
B44: Z11283 (designed binder)
chain: B1 chain with R18Q, K19Q, Y22T, L26S
notes: as for B1

EC50: 0.17 nM
B23: Z11351 (designed binder)
chain: B1 chain with R18A, K19S, Y22F, L26T, D33Q
notes: as for B1

EC50: 0.17 nM
B31: Z11380 (designed binder)
chain: B1 chain with K19E, L26V
notes: as for B1

EC50: 0.15 nM
B8: Z11213 (designed binder)
chain: B1 chain with K19E, L26V, D33S, M35I
notes: as for B1

EC50: 0.15 nM
B9: Z11278 (designed binder)
chain: B1 chain with K19T, L26I, D33S
notes: as for B1

EC50: 0.15 nM
B17: Z11384 (designed binder)
chain: B1 chain with D33N
notes: as for B1

EC50: 0.14 nM
B2: Z11329 (designed binder)
chain: B1 chain with K19Q, D33Q
notes: as for B1

EC50: 0.14 nM
B15: Z11215 (designed binder)
chain: B1 chain with R18A, K19E, Y22W, D33S
notes: as for B1

EC50: 0.14 nM
B36: Z11321 (designed binder)
chain: B1 chain with K19V, V32I, D33T
notes: as for B1

EC50: 0.14 nM
B37: Z11251 (designed binder)
chain: B1 chain with Y22F, L26A
notes: as for B1

EC50: 0.14 nM
B41: Z11222 (designed binder)
chain: B1 chain with K19D, V32I
notes: as for B1

EC50: 0.13 nM
B3: Z11214 (designed binder)
chain: B1 chain with K19T, Y22F, L26T, D33E
notes: as for B1

EC50: 0.13 nM
B21: Z11217 (designed binder)
chain: B1 chain with K19E, D33E
notes: as for B1

EC50: 0.12 nM
B38: Z11277 (designed binder)
chain: B1 chain with R18A, Y22F, L26A, D33E
notes: as for B1

Source: patent US20170129926A1 (ABCLON, published 2017)
